In ChEMBL document CHEMBL5029155, “Design, Synthesis, and Biological Evaluation of Stable Colchicine-Binding Site Tubulin Inhibitors 6-Aryl-2-benzoyl-pyridines as Potential Anticancer Agents” (J Med Chem, 2021):

Legend:
Assay type in all cases: functional, cell-based
[1] = Cytotoxicity against paclitaxel resistant human A-375/TxR cells measured after 72 hrs […]; details: A375/TxR
A-375 = assay: Cytotoxicity against human A-375 cells measured after 72 hrs by western blot; details: A-375, 72 h
[2] = Cytotoxicity against paclitaxel resistant human MDA-MB-231/TxR cells measured after 72 hrs […]
MDA-MB-231 = assay: Cytotoxicity against human MDA-MB-231 cells measured after 72 hrs […]; details: MDA-MB-231, 72 h

Compound: COc1cc2c(c(OC)c1OC)-c1ccc(OC)c(=O)cc1[C@@H](NC(C)=O)CC2 [COLCHICINE]
- IC50 [1]: 29.6 nM
- IC50 (A-375): 16.8 nM
- IC50 [2]: 24 nM
- IC50 (MDA-MB-231): 24.3 nM
